Experimental data reported in the M2OR odorant receptor database.
This is a selection; strong and weak results do not stand in their true shares. Calls are pooled over several reports, among them a noisy single-well screen. This is one part of the list.

Sequences of proteins named here, by UniProt entry; tags and fusion partners are left off. A change or cut given only in a name is not applied to a line headed by its entry.
UniProt Q8NH57: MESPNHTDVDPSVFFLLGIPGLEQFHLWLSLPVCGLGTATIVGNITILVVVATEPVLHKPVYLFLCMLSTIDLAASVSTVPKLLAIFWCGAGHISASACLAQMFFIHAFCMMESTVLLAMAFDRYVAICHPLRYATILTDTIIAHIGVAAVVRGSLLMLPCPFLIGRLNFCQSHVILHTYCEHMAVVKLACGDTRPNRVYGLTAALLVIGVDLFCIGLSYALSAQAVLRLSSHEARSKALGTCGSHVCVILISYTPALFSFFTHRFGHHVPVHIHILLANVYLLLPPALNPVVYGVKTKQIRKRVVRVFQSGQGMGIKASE

How the values were obtained:
Conditions in all cases: stereoisomer not certain
OR52N1 (Homo sapiens) = biological target: T1, OR52N1 (Homo sapiens) (UniProt Q8NH53)
T1 sequence (whole entry): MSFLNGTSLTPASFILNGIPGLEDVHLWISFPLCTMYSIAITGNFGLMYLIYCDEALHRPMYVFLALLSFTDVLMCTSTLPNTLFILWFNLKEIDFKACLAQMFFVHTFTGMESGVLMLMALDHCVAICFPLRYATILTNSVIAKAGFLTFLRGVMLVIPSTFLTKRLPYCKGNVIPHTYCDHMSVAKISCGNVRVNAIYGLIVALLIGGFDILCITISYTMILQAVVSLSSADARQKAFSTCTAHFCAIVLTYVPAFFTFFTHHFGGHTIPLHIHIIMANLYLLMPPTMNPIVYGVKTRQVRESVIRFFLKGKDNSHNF
How it was run: (§1)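 Assay methods differ from source to source, frequently being transient luciferase assays in mammalian cell lines. For each receptor–molecule pair, the label responsive (active) applies when the original authors judged the measured signal statistically different from baseline, and non-responsive (inactive) applies otherwise.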

OR52N4 (Homo sapiens) = biological target: T2, OR52N4 (Homo sapiens) (UniProt Q8NGI2)
T2 sequence (whole entry): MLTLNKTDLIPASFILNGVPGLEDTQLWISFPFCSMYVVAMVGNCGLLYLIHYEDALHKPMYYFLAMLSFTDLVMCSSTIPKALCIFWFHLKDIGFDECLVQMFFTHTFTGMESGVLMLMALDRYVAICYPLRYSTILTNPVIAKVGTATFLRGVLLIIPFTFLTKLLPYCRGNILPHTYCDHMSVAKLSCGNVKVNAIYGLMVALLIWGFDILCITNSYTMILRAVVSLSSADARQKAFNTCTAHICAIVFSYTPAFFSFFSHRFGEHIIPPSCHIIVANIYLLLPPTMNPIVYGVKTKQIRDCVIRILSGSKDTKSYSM
How it was run: as §1

OR52N5 (Homo sapiens) = biological target: T3, OR52N5 (Homo sapiens) (UniProt Q8NH56)
T3 sequence (whole entry): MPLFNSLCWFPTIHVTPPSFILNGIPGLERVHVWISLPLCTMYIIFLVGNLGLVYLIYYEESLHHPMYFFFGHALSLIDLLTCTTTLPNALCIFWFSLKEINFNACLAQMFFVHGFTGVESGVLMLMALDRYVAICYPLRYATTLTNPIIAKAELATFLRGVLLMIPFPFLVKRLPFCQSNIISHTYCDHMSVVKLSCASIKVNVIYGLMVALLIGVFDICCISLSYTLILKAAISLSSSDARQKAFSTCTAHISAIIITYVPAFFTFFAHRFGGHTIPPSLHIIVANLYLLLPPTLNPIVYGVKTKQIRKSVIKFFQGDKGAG
How it was run: as §1

OR52P1 (Homo sapiens) = OR52P1 (Homo sapiens) (UniProt Q8NH57)
How it was run: as §1

OR52W1 (Homo sapiens) = biological target: T4, OR52W1 (Homo sapiens) (UniProt Q6IF63)
T4 sequence (whole entry): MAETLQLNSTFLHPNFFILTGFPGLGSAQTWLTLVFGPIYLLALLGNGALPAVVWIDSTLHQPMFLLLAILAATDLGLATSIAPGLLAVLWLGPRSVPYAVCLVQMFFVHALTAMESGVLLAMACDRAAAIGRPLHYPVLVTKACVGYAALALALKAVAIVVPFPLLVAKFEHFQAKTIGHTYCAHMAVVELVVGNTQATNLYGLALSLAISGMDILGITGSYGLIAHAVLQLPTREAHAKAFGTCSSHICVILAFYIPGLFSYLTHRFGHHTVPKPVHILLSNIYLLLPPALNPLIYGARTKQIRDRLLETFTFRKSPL
How it was run: as §1

OR56A1 (Homo sapiens) = biological target: T5, OR56A1 (Homo sapiens) (UniProt Q8NGH5)
T5 sequence (whole entry): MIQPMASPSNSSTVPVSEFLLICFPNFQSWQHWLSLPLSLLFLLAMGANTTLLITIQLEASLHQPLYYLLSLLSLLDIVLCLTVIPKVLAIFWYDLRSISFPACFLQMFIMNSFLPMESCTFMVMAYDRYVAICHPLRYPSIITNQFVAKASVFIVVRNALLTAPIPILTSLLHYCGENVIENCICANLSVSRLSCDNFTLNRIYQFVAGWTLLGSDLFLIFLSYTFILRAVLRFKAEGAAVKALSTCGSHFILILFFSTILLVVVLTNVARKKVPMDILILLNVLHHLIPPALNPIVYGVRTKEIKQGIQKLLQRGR
How it was run: as §1

OR56A3 (Homo sapiens) = biological target: T6, OR56A3 (Homo sapiens) (UniProt Q8NH54)
T6 sequence (whole entry): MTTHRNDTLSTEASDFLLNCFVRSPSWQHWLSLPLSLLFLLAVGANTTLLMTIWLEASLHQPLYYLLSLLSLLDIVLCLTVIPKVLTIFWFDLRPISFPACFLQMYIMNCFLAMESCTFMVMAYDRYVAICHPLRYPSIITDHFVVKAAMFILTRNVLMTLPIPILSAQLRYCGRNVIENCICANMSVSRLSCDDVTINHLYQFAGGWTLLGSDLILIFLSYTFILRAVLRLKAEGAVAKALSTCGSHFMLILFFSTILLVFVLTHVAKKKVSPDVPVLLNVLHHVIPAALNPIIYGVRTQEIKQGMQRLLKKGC
How it was run: as §1

OR56A4 (Homo sapiens) = biological target: T7, OR56A4 (Homo sapiens) (UniProt Q8NGH8)
T7 sequence (whole entry): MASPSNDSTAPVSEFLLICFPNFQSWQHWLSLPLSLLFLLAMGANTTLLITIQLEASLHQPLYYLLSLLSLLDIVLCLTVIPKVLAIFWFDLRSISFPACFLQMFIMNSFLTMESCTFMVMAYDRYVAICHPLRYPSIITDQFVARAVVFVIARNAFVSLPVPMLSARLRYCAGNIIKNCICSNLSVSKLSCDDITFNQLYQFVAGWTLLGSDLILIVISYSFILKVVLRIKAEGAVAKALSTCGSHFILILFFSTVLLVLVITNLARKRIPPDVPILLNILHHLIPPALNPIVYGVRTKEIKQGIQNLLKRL
How it was run: as §1

OR56A5 (Homo sapiens) = biological target: T8, OR56A5 (Homo sapiens) (UniProt P0C7T3)
T8 sequence (whole entry): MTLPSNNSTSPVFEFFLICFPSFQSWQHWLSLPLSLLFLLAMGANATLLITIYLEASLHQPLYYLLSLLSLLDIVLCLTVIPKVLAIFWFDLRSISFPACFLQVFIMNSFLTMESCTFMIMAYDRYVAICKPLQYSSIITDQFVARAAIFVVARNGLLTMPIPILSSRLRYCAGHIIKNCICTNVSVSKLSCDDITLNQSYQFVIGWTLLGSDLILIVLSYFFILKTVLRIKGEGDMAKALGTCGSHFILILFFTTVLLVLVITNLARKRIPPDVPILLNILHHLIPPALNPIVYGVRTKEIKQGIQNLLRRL
How it was run: as §1

OR56B1 (Homo sapiens) = biological target: T9, OR56B1 (Homo sapiens) (UniProt Q8NGI3)
T9 sequence (whole entry): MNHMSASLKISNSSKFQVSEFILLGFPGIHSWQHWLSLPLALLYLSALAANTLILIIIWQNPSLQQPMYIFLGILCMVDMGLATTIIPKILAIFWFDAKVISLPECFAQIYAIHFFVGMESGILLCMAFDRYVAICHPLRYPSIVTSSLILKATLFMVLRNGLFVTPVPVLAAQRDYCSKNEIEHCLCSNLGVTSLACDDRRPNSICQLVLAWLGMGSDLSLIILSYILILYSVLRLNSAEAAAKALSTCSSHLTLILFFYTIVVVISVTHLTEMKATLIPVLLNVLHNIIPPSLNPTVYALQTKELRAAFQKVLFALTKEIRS
How it was run: as §1

OR56B4 (Homo sapiens) = biological target: T10, OR56B4 (Homo sapiens) (UniProt Q8NH76)
T10 sequence (whole entry): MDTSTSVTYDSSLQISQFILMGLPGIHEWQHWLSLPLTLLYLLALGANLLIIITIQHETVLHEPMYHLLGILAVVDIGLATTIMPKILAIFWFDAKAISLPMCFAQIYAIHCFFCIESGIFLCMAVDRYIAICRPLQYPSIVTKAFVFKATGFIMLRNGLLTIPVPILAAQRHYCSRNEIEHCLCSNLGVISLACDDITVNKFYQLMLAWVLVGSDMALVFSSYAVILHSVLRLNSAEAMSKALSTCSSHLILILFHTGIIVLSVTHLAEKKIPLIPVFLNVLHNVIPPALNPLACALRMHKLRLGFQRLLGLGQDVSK
How it was run: as §1

OR5A1 (Homo sapiens) = OR5A1 (Homo sapiens) (UniProt Q8NGJ0)
How it was run: as §1

OR5A1 [1] = test system: T11, OR5A1
T11 sequence (whole entry): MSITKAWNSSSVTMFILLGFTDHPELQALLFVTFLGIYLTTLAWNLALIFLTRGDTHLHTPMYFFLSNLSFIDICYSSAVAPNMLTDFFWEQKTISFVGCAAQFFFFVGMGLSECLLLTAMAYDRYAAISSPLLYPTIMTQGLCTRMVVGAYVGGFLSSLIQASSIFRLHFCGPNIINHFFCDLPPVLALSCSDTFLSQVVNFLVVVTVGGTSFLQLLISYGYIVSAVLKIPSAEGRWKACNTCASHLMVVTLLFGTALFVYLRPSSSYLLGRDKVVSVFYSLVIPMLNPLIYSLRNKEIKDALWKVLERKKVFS
How it was run: as §1

OR5A1 [2] = test system: T12, OR5A1; remark: listed apart in the source
T12 sequence (whole entry): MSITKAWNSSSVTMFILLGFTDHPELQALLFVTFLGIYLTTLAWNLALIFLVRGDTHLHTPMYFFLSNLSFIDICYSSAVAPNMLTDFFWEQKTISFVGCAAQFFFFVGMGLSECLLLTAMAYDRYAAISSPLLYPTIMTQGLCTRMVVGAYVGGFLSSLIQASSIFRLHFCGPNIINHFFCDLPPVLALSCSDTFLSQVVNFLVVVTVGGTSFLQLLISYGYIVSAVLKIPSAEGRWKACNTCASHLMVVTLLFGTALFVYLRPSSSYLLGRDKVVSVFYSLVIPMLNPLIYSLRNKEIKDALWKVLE
How it was run: as §1

OR5A1 [3] = test system: T13, OR5A1; remark: listed apart in the source
T13 sequence (whole entry): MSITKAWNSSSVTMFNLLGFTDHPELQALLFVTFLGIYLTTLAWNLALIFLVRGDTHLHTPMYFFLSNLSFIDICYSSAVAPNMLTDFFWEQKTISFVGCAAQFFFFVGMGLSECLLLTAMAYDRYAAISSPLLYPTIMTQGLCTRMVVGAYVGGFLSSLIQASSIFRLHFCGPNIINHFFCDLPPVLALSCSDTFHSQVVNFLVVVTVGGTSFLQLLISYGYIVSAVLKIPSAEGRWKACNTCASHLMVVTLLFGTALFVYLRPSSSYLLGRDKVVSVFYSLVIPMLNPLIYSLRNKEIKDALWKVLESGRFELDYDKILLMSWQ
How it was run: as §1

OR5AC2 (Homo sapiens) = biological target: T14, OR5AC2 (Homo sapiens) (UniProt Q9NZP5)
T14 sequence (whole entry): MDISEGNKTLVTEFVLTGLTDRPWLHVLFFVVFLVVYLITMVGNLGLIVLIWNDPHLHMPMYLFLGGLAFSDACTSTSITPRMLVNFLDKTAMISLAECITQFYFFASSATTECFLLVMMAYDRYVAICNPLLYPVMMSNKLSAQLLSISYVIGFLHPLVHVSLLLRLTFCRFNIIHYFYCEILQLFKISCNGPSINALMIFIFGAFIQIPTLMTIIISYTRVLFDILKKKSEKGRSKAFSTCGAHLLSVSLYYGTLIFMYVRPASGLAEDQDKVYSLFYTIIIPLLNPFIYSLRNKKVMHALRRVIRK
How it was run: as §1

OR5AK2 (Homo sapiens) = biological target: T15, OR5AK2 (Homo sapiens) (UniProt Q8NH90)
T15 sequence (whole entry): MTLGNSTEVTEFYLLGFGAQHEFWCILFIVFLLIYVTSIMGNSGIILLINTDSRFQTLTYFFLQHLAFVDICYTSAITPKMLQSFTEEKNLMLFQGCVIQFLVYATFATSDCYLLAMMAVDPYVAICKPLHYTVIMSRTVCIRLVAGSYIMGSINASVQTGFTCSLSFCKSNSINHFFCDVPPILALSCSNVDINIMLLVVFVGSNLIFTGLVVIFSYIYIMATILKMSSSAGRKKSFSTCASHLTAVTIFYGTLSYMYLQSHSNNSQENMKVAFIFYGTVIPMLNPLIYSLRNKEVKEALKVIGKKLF
How it was run: as §1

OR5A2 (Homo sapiens) = biological target: T16, OR5A2 (Homo sapiens) (UniProt Q8NGI9)
T16 sequence (whole entry): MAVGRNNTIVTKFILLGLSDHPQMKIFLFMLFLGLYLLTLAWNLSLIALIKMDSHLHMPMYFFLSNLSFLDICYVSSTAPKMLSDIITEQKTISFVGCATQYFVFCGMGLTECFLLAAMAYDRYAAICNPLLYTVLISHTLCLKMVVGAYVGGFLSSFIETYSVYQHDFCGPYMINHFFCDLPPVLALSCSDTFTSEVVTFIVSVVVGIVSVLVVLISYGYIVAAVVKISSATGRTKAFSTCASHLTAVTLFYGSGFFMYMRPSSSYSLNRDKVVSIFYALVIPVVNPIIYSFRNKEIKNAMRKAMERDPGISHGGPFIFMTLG
How it was run: as §1

Measured: odorant receptor agonist call

CC12C=CCC1C1CCC3CC(=O)CCC3(C)C1CC2 (stereo unspecified)
active: OR5A1 [2] | OR5A1 [3]
not listed: OR5A2 (Homo sapiens)
inactive: all other assays above

COc1ccccc1O
inactive: OR52N5 (Homo sapiens) | OR56A1 (Homo sapiens) | OR56A4 (Homo sapiens) | OR56A5 (Homo sapiens) | OR5A1 [1] | OR5A1 [2] | OR5A1 [3] | OR5A2 (Homo sapiens) | OR5AK2 (Homo sapiens)
